{"source": "PubChem BioAssay AID504793, Drosophila RNAi Screening Center | 2011", "assay": "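Genes required for cells to halt at G2/M after double-strand DNA breaks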 (primary screen)", "system": "Drosophila S2R+ cells", "reagent": "long dsRNA against Drosophila genes, about 0.25 µg dsRNA per well", "timing": "4 days of dsRNA, then 4 hours of drug before read-out", "challenge": "doxorubicin 0.5 µM for 4 hours to cause double-strand breaks, in cells also given a low, harmless dose of dsRNA against nbs to sensitise the assay", "read-out": "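Mitotic index as the number of phospho-histone H3-positive cells in each well following doxorubicin, given as raw counts without normalisation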", "scale": "mitotic cells: higher = more cells in mitosis, weaker G2 arrest", "rule for the call": "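a call needs confirmation in secondary tests, with other dsRNAs and a check of mitotic timing without damage, not just a high primary count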", "meaning of the calls": "active = confirmed in follow-up tests; inactive = not confirmed", "note": "The deposit covers about 23,000 reagents; this is a random part of those that have a named target and a result. Over the whole deposit, 62 (0.27%) were called active. 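Calls come from follow-up tests whose scores are not deposited, so confirmed genes may have low counts here; counts are not normalised per plate.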 Raw values are not corrected between plates. The numbers tell different reagents against one gene apart."}
The first 2 records as a preview:
{"gene knocked down":"firl","reagent no.":1,"mitotic cells, replicate 1":4,"Call":"inactive"}
{"gene knocked down":"mars","reagent no.":1,"mitotic cells, replicate 1":38,"mitotic cells, replicate 2":14,"Call":"inactive"}

The listing, repeating the preview:
{"gene knocked down":"firl","reagent no.":1,"mitotic cells, replicate 1":4,"Call":"inactive"}
{"gene knocked down":"mars","reagent no.":1,"mitotic cells, replicate 1":38,"mitotic cells, replicate 2":14,"Call":"inactive"}
{"gene knocked down":"blanks","reagent no.":1,"mitotic cells, replicate 1":6,"Call":"inactive"}
{"gene knocked down":"CG9040","reagent no.":1,"mitotic cells, replicate 1":8,"Call":"inactive"}
{"gene knocked down":"Obp83b","reagent no.":1,"mitotic cells, replicate 1":3,"Call":"inactive"}
{"gene knocked down":"Obp83b","reagent no.":2,"mitotic cells, replicate 1":5,"Call":"inactive"}
{"gene knocked down":"Zfrp8","reagent no.":1,"mitotic cells, replicate 1":3,"Call":"inactive"}
{"gene knocked down":"Adgf-B","reagent no.":1,"mitotic cells, replicate 1":8,"Call":"inactive"}
{"gene knocked down":"Adgf-B","reagent no.":2,"mitotic cells, replicate 1":11,"Call":"inactive"}
{"gene knocked down":"CG9072","reagent no.":1,"mitotic cells, replicate 1":13,"Call":"inactive"}
{"gene knocked down":"TTLL6B","reagent no.":1,"mitotic cells, replicate 1":9,"Call":"inactive"}
{"gene knocked down":"TTLL6B","reagent no.":2,"mitotic cells, replicate 1":3,"Call":"inactive"}
{"gene knocked down":"CG5039","reagent no.":1,"mitotic cells, replicate 1":5,"Call":"inactive"}
{"gene knocked down":"CG5039","reagent no.":2,"mitotic cells, replicate 1":5,"Call":"inactive"}
{"gene knocked down":"ck","reagent no.":1,"mitotic cells, replicate 1":4,"Call":"inactive"}
{"gene knocked down":"mRpL17","reagent no.":1,"mitotic cells, replicate 1":11,"Call":"inactive"}
{"gene knocked down":"Lime","reagent no.":1,"mitotic cells, replicate 1":9,"Call":"inactive"}
{"gene knocked down":"CG6683","reagent no.":1,"mitotic cells, replicate 1":10,"Call":"inactive"}
{"gene knocked down":"CG6683","reagent no.":2,"mitotic cells, replicate 1":8,"Call":"inactive"}
{"gene knocked down":"mts","reagent no.":1,"mitotic cells, replicate 1":52,"Call":"inactive"}
{"gene knocked down":"Lk","reagent no.":1,"mitotic cells, replicate 1":7,"Call":"inactive"}
{"gene knocked down":"CG10089","reagent no.":1,"mitotic cells, replicate 1":3,"Call":"inactive"}
{"gene knocked down":"CG10089","reagent no.":2,"mitotic cells, replicate 1":4,"Call":"inactive"}
{"gene knocked down":"alka","reagent no.":1,"mitotic cells, replicate 1":5,"Call":"inactive"}
{"gene knocked down":"CG4546","reagent no.":1,"mitotic cells, replicate 1":7,"Call":"inactive"}
{"gene knocked down":"CG4546","reagent no.":2,"mitotic cells, replicate 1":8,"Call":"inactive"}
{"gene knocked down":"CG14326","reagent no.":1,"mitotic cells, replicate 1":11,"Call":"inactive"}
{"gene knocked down":"CG14326","reagent no.":2,"mitotic cells, replicate 1":2,"Call":"inactive"}
{"gene knocked down":"CG32192","reagent no.":1,"mitotic cells, replicate 1":12,"Call":"inactive"}
{"gene knocked down":"CG32192","reagent no.":2,"mitotic cells, replicate 1":8,"Call":"inactive"}
{"gene knocked down":"CG10936","reagent no.":1,"mitotic cells, replicate 1":8,"Call":"inactive"}
{"gene knocked down":"CG10936","reagent no.":2,"mitotic cells, replicate 1":2,"Call":"inactive"}
{"gene knocked down":"CG10936","reagent no.":3,"mitotic cells, replicate 1":4,"Call":"inactive"}
{"gene knocked down":"IA-2","reagent no.":1,"mitotic cells, replicate 1":8,"mitotic cells, replicate 2":7,"Call":"inactive"}
{"gene knocked down":"IA-2","reagent no.":2,"mitotic cells, replicate 1":2,"Call":"inactive"}
{"gene knocked down":"IA-2","reagent no.":3,"mitotic cells, replicate 1":8,"Call":"inactive"}
{"gene knocked down":"IA-2","reagent no.":4,"mitotic cells, replicate 1":5,"Call":"inactive"}
